PubChem BioAssay AID1259405 | NCATS – 2018
The deposit covers about 50,000 reagents; below is a random part of them. About 4,000 of them (8%) count as active. 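Mouse siRNA library applied to hamster cells; one well for each siRNA.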 Unmarked entries are inactive. The numbers tell different reagents against one gene apart. Not all columns of the deposit are shown. Reagent sequences are not shown.

Purpose: 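Mouse-designed siRNAs used to find CHO productivity engineering targets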 (primary screen)
Cell system: Chinese hamster CHO-K1 ovary cells with stable secreted eGFP expression
Knock-down reagent: single siRNA against mouse genes, 0.8 pmol siRNA per well (2 µl of 400 nM stock)
Time to read-out: 3 days
Measured: 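Percent of the per-plate non-targeting control median for intracellular GFP per well by laser scanning cytometry and for cell viability by ATP luminescence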
Reading the numbers: GFP, % of control: higher = more GFP per well, higher productivity
Call rule: 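a knock-down is called active if GFP reaches 120% or more of non-targeting control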

GFP, % of control, by target and reagent
Skor1 (SKI family transcriptional corepressor 1): #1 72.3; #2 82.6; #3 88.2
4930522H14Rik (RIKEN cDNA 4930522H14 gene): #1 93.7; #2 45; #3 68.6
Pramel1 (PRAME like 1): #1 85; #2 83.5; #3 149 (active); #4 149 (active); #5 76.3; #6 84.1
Hmmr (hyaluronan mediated motility receptor (RHAMM)): #1 107; #2 63.8
Daglb (diacylglycerol lipase, beta): #1 55.6; #2 128 (active); #3 119
Lce1i (late cornified envelope 1I): #1 87.1; #2 80.9; #3 72.6

Part of the list above, reformatted.
| target | reagent no. | GFP, % of control |
| --- | --- | --- |
| Skor1 (SKI family transcriptional corepressor 1) | 2 | 82.6 |
| Skor1 (SKI family transcriptional corepressor 1) | 3 | 88.2 |
| 4930522H14Rik (RIKEN cDNA 4930522H14 gene) | 1 | 93.7 |

Further records follow:
GFP, % of control, by target and reagent
Szrd1 (SUZ RNA binding domain containing 1): #1 90.9; #2 63.1; #3 88.1
Nup98 (nucleoporin 98): #1 65.8; #2 37.7; #3 33.9
Cyp3a25 (cytochrome P450, family 3, subfamily a, polypeptide 25): #1 143 (active); #2 54.1; #3 75.8
Abcb6 (ATP-binding cassette, sub-family B member 6): #1 88.7; #2 70.7; #3 93.1
Yif1a (Yip1 interacting factor homolog A (S. cerevisiae)): #1 30.5; #2 61.1; #3 77.6
Or5w1 (olfactory receptor family 5 subfamily W member 1): #1 104; #2 79.3; #3 135 (active)
Lcp1 (lymphocyte cytosolic protein 1): #1 45.7; #2 42.5
Tspan5 (tetraspanin 5): #1 65.9; #2 112; #3 46.9
Cd300lb (CD300 molecule like family member B): #1 68.5; #2 46.4; #3 57.3
3300002I08Rik (RIKEN cDNA 3300002I08 gene): #1 49.8; #2 59.7; #3 98.9
Art5 (ADP-ribosyltransferase 5): #1 99.9; #2 86.5; #3 98.4
Hoxc8 (homeobox C8): #1 83.3; #2 54.3; #3 89.2
Ccdc91 (coiled-coil domain containing 91): #1 188 (active); #2 69; #3 94.5
